# Results of single-concentration screens

Results are given as percent effect. The controls that fix the scale are not given in the record; negative values are as filed. Compounds were drawn at random from those tested, without regard to their results.

T. brucei: 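Whole-parasite assay of Trypanosoma brucei over 72 hours; the read-out is not stated. Compounds at 30 µM. The record gives no direction; compounds that gave an IC50 in retests scored well above the rest, so higher reads as stronger inhibition. Values scatter widely below zero; nearly all retest evidence comes from the higher of the two concentrations used. About 64,000 compounds were tested under these conditions; 1.5% (about 940) showed 50% or more at least once.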
Leishmania in macrophages: 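Cell assay of Leishmania donovani living inside macrophages; the read-out is not stated. Compounds at 30 µM. Higher reads as stronger inhibition (inferred: compounds with an IC50 in retests scored well above the rest). Size under these conditions: about 69,000 compounds, about 1,000 of them at 50% or above in at least one test.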

{"smiles": "COC(C)(C)CNC(=O)N1CCCC1c1c(C)n[nH]c1C", "stereo": "configuration not stated", "T. brucei": -21.05, "Leishmania in macrophages": -11.98}
{"smiles": "CC(C)(C)Cc1noc2ncc(C(=O)N3CCSCC3)cc12", "T. brucei": -15.89, "Leishmania in macrophages": 7.872}
{"smiles": "Oc1nc(N2CCOCC2)nc2c1CCN(Cc1cccnc1)CC2", "T. brucei": 18.4, "Leishmania in macrophages": 23.79}
{"smiles": "CC1CCN(CC(O)CN2CCn3c(nnc3C3CC3)C2)CC1", "stereo": "configuration not stated", "T. brucei": -39.09, "Leishmania in macrophages": 6.357}
{"smiles": "COc1cc(N2CCC3(CCCN3Cc3cnn(C)c3)CC2)ncn1.O=C(O)C(F)(F)F", "Leishmania in macrophages": 24.58}
{"smiles": "CCNc1cc2c(nn1)CCN(C(=O)Cc1noc3ccccc13)C2", "T. brucei": 34.84, "Leishmania in macrophages": 4.578}
{"smiles": "CCS(=O)(=O)N1CCCn2nnc(CNC(C)=O)c2C1", "T. brucei": -32.99, "Leishmania in macrophages": 34.5}
{"smiles": "CC1(C(=O)N2CCOCC2)CN(C2CCCCC2)CCO1", "stereo": "configuration not stated", "T. brucei": 7.631, "Leishmania in macrophages": 13.45}
{"smiles": "Cc1nc(C)c(S(=O)(=O)NC(=O)c2ccsc2)s1", "T. brucei": -13.93, "Leishmania in macrophages": 32.77}
{"smiles": "Cc1nc(C(=O)N2CCCC2c2noc(C)n2)c[nH]1", "stereo": "configuration not stated", "T. brucei": -7.95, "Leishmania in macrophages": -8.393}
{"smiles": "CCN1CC(C(=O)NCCCc2nc(C)c(C)s2)CC1=O", "stereo": "configuration not stated", "T. brucei": -48.44, "Leishmania in macrophages": 12.36}
{"smiles": "CC(C)n1cc(CN2CCCN(C(=O)C3CCOC3)CC2)cn1", "stereo": "configuration not stated", "T. brucei": -14.59, "Leishmania in macrophages": 9.696}
{"smiles": "Cc1ccc(N2C[C@@H](CN3CCOCC3)[C@@H](CO)C2)nn1", "T. brucei": -17.95, "Leishmania in macrophages": -0.05532}
{"smiles": "CN(C)C(=O)CN1CCC2(CCN(C(=O)N3CCCC3)CC2)C1=O", "T. brucei": 10.85, "Leishmania in macrophages": 22.94}
{"smiles": "COc1ccc2nnc(CCC(=O)Nc3nc4c(s3)CCCCC4)n2n1", "T. brucei": -4.094, "Leishmania in macrophages": -13.16}
{"smiles": "Cc1ncsc1CCN(C)C(=O)CN1CC2(CCCC2)CC1=O", "T. brucei": -13.95, "Leishmania in macrophages": 22.98}
{"smiles": "O=C(Cc1cccc(F)c1)NCCNCc1cccc(O)c1", "T. brucei": 14.51, "Leishmania in macrophages": 11.2}
{"smiles": "Cn1ccc2c(NC(=O)Cn3ncc4c(c3=O)CCCC4)cccc21", "T. brucei": 2.162, "Leishmania in macrophages": 9.79}
{"smiles": "CNC(=O)Cc1ccc(NC(=O)NCC(C)c2ncc(C)s2)cc1", "stereo": "configuration not stated", "T. brucei": -17.96, "Leishmania in macrophages": 2.77}
{"smiles": "O=C1OCCC1N1CCN(c2ccc(O)cc2)CC1", "stereo": "configuration not stated", "T. brucei": -39.5, "Leishmania in macrophages": -0.4355}
{"smiles": "Cc1cnn(CCCNC(=O)CCC2CCCCN2C)c1", "stereo": "configuration not stated", "T. brucei": 12.28, "Leishmania in macrophages": 28.29}
{"smiles": "Cc1nnc(CNC(=O)CC2CCc3ccccc32)o1", "stereo": "configuration not stated", "T. brucei": -29.8, "Leishmania in macrophages": -9.386}
{"smiles": "CC(C)(C)n1c(NC(=O)CNC(=O)NC2CC2)nc2ccccc21", "T. brucei": 1.087, "Leishmania in macrophages": 24.67}
{"smiles": "Cc1ccc(CN2CCCC3(COCCN(Cc4c[nH]nn4)C3)C2)s1.O=C(O)C(F)(F)F.O=C(O)C(F)(F)F", "stereo": "configuration not stated", "T. brucei": -11.11, "Leishmania in macrophages": -33.65}
{"smiles": "CC(O)CCN(C)S(=O)(=O)Cc1ccc(Br)cc1", "stereo": "configuration not stated", "T. brucei": -42.66, "Leishmania in macrophages": -31.32}
{"smiles": "O=C(O)c1sccc1Oc1ccc(NC(=O)C2CC2)cc1", "Leishmania in macrophages": 18.86}
{"smiles": "O=C1CCC(C(=O)NCc2nn(-c3ccccc3)c3c2CCC3)CN1", "stereo": "configuration not stated", "T. brucei": -13.57, "Leishmania in macrophages": 2.996}
{"smiles": "Cc1nn(C)c(C)c1CN(C)C(C(=O)O)c1ccc(F)cc1F", "stereo": "configuration not stated", "T. brucei": -24.4, "Leishmania in macrophages": 4.801}
{"smiles": "Cc1cc(NCc2cc3n(n2)CCCN(C(=O)C2CCC2)C3)nc(N)n1", "T. brucei": -0.571, "Leishmania in macrophages": 46.75}
{"smiles": "O=C(NCCc1nncn1C1CC1)C1(Cc2ccccc2)CCC1", "T. brucei": -58.77, "Leishmania in macrophages": 8.956}
{"smiles": "Cc1ccc(NC(=O)NC(C)(C)c2noc(C)n2)cc1", "T. brucei": -70.82, "Leishmania in macrophages": 4.289}
{"smiles": "Cn1ccc(CN2CCCN(c3nccs3)CC2)cc1=O", "T. brucei": -4.537, "Leishmania in macrophages": 37.31}
{"smiles": "O=C(C1CCOC1)N1CCC2(CCNCC2)C1", "stereo": "configuration not stated", "T. brucei": -0.9426, "Leishmania in macrophages": 11.74}
{"smiles": "Cc1nn(C)c2ncc(CN3CCN(c4ncccn4)CC3)cc12", "T. brucei": -21.24, "Leishmania in macrophages": 4.807}
{"smiles": "O=C(Nc1cnn(CCN2CCOCC2)c1)c1cc(F)ccc1F", "T. brucei": -29.9, "Leishmania in macrophages": 20.59}
{"smiles": "O=C(O)C(F)(F)F.O=C([C@H]1CCCO1)N1CCCC2(COCCN(c3ccccc3)C2)C1", "stereo": "some centres not stated", "T. brucei": -14.49, "Leishmania in macrophages": -12.03}
{"smiles": "COc1cccc(Cc2nc3c([nH]2)CC(C)(C)CNC3=O)c1OC", "T. brucei": 5.431, "Leishmania in macrophages": 7.012}
{"smiles": "Cc1nc(CN2CCCC(NCc3cccc4ccccc34)C2)no1", "stereo": "configuration not stated", "T. brucei": -31.57, "Leishmania in macrophages": -0.2237}
{"smiles": "CCc1nc2ccccc2c(=O)n1CC1(O)CCNCC1.Cl", "T. brucei": -6.231, "Leishmania in macrophages": -12.16}
{"smiles": "Cc1ccc(N2CCCC(NCc3nnc(-c4ccco4)o3)C2)nn1", "stereo": "configuration not stated", "T. brucei": 7.466, "Leishmania in macrophages": 37.72}
{"smiles": "O=C(N[C@H]1CC[C@@]2(CCC(=O)N2CC2CC2)CC1)c1cnccn1", "T. brucei": -8.587, "Leishmania in macrophages": 9.347}
{"smiles": "[H][C@@]12CN(C(=O)COC)C[C@]1([H])C(=O)N(Cc1cccc(F)c1)C2", "T. brucei": 33.71, "Leishmania in macrophages": 5.744}
{"smiles": "COc1ccc(Cl)cc1CNC(=O)CN1CCC2(CCOC2)C1", "stereo": "configuration not stated", "T. brucei": -16.87, "Leishmania in macrophages": -9.386}

2 of the entries, repeated:

SMILES,T. brucei,Leishmania in macrophages
Cc1ccc(N2C[C@@H](CN3CCOCC3)[C@@H](CO)C2)nn1,-17.95%,-0.05532%
CC(C)n1cc(CN2CCCN(C(=O)C3CCOC3)CC2)cn1 (configuration not stated),-14.59%,9.696%

Measurements from “University of Dundee, Small-Polar-MMV Screening Library” (2021), ChEMBL document CHEMBL3988442.